The target of assay [1] is androgen receptor (AR) (human (endogenous in LNCaP and other prostate cancer cell lines)) (UniProt P10275). The experiment in a line: co-IP; endogenous AR immunoprecipitated with an antibody and protein G Dynabeads from lysates of prostate cancer cells; washes with 300 mM NaCl; immunoblot. A general note: Immunoblotting shows a protein as a band on a membrane.
The target is the same in assay [2]. The experiment in a line: SEC; nuclear lysate of LNCaP cells on a Superose 6 10/300 GL column, FPLC buffer (20 mM Tris-HCl pH 7.9, 0.1 M KCl, 5 mM MgCl2, 10% glycerol); fractions blotted. In general terms: In gel filtration, larger molecules generally elute earlier.

By UniProt entry, the sequences of proteins in these tests, tags left out.
UniProt P10275: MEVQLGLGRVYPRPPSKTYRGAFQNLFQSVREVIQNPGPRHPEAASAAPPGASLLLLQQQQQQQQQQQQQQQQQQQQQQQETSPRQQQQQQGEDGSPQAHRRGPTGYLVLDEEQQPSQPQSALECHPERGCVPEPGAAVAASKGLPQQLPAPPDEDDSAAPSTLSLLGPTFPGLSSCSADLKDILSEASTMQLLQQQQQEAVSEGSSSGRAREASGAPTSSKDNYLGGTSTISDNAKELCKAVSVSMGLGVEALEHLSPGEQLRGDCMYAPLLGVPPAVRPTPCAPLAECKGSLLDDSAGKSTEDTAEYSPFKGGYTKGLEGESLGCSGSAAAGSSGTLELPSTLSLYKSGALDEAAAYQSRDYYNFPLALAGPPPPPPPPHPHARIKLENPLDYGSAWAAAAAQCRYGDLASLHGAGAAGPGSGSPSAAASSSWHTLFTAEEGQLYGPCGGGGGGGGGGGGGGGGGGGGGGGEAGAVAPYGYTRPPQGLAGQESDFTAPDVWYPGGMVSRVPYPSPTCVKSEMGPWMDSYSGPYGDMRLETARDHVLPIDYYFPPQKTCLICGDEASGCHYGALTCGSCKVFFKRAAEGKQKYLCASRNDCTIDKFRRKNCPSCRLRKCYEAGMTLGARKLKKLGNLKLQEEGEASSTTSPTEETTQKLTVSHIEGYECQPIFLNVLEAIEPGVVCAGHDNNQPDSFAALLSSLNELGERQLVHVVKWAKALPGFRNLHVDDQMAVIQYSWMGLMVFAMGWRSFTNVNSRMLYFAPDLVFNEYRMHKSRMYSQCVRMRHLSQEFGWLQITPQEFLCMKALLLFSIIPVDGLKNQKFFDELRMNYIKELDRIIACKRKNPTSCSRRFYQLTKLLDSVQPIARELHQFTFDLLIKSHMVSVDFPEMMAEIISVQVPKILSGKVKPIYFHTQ
UniProt O96028: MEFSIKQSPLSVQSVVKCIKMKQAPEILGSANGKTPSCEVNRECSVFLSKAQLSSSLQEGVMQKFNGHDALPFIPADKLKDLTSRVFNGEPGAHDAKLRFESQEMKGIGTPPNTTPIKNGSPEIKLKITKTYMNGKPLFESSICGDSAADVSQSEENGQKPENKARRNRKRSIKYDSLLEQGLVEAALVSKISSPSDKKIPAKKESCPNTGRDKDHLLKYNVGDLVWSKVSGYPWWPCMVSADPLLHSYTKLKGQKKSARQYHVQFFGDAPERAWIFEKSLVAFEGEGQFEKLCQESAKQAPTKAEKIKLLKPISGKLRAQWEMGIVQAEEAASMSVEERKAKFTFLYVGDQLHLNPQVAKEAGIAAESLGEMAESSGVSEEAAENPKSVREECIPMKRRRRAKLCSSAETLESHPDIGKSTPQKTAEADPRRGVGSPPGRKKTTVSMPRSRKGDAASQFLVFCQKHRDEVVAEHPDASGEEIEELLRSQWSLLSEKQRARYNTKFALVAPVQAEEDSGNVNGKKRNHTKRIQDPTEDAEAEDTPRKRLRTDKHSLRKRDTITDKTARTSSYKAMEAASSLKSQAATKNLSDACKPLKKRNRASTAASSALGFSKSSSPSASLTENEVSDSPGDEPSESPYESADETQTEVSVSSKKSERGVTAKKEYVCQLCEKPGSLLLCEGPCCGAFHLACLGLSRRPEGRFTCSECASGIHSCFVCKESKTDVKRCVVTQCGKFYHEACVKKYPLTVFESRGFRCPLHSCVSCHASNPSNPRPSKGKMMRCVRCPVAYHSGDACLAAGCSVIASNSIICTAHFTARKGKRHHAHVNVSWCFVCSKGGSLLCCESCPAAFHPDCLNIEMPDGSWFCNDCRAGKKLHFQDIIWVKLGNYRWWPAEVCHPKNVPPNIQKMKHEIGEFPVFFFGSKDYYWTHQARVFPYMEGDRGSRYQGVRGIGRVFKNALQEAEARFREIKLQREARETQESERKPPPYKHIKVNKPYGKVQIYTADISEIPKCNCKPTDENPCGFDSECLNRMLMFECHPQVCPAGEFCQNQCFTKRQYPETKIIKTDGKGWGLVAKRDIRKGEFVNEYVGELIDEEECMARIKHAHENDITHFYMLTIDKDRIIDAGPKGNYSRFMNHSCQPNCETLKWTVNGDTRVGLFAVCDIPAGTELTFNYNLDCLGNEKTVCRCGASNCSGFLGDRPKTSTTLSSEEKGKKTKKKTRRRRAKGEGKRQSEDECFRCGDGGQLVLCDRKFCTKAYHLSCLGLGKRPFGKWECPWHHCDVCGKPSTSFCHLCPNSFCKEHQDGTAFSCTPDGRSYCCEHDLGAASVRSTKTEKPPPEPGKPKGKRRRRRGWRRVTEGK

Our source for the binding values is paper doi:10.1101/2024.02.22.581560.

Results are given in words; binding and its absence hold for the method and conditions named. For some assays here: Binding seen in cells or lysates may run through a third protein. Some entries that bind do so weakly or less than the wild type.

For “Nuclear Receptor Binding SET Domain Protein 2 (NSD2) (from UniProt O96028 1-1365)”, the binding entry in assay [1] and in assay [2] was “binds” in each case.
